No constants are given. Whether binding was seen depends on the method and setting. In cells and extracts the contact can be indirect. Some results given as binding are weak or reduced against the parent protein; the word gives no strength.
What was measured:
[1] = biological target: High-mobility group box 1 (HMGB1), endogenous human (human (endogenous in Huh7, L02, HepG2.2.15, 293T cells and patients' liver)) (UniProt P09429); experiment: co-IP
[2] = biological target: High-mobility group box 1 (HMGB1), endogenous human (human (endogenous in Huh7, L02, HepG2.2.15, 293T cells and patients' liver)) (UniProt P09429); experiment: co-IP; liver samples from HBV patients, compared with controls
[3] = biological target: HMGB1, endogenous mouse (mouse (endogenous in mouse liver)) (UniProt P63158); experiment: co-IP; liver samples from HBx-transgenic mice, compared with controls

By UniProt entry, the sequences of proteins in these tests, tags left out.
UniProt P09429: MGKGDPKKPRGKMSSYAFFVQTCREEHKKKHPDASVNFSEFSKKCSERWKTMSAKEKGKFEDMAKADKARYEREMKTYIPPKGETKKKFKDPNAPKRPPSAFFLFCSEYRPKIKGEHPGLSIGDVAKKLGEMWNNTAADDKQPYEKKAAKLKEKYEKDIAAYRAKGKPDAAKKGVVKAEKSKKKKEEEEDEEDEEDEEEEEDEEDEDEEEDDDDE
UniProt P63158: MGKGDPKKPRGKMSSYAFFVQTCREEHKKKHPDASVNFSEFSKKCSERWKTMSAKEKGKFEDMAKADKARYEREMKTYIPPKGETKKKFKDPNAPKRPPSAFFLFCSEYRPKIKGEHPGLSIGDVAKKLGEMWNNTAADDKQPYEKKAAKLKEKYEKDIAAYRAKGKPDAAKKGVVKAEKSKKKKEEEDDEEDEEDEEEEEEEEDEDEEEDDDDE
UniProt Q14457: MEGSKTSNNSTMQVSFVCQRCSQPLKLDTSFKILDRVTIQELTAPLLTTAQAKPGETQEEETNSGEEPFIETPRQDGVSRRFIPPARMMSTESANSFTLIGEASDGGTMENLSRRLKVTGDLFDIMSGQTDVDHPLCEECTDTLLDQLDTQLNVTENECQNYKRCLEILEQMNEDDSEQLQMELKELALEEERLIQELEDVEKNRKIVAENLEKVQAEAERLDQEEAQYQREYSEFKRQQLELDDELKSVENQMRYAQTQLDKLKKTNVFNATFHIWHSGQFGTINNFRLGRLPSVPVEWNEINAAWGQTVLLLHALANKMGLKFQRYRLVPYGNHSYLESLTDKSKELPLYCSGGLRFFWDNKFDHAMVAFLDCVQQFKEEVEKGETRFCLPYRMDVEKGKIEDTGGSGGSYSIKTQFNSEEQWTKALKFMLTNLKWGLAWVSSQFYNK
UniProt O88597: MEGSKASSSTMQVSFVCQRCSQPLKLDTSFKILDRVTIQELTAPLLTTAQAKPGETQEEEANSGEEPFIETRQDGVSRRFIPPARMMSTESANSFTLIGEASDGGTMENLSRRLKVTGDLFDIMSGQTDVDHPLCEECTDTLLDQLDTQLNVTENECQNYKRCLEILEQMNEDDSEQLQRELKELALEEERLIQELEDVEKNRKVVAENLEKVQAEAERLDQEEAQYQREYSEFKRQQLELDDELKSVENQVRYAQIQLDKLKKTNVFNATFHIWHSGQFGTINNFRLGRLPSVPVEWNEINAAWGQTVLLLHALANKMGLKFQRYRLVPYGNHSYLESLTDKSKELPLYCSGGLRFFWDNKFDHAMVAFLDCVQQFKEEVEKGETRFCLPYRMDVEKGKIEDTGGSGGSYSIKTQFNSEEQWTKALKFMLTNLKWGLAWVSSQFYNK

Substance	binding [1]	binding [2]	binding [3]
Beclin1, endogenous human (from UniProt Q14457 1-450)	binds	binds	
Beclin1, endogenous mouse (from UniProt O88597 1-448)			binds

Source: PMC5830655
